According to publication PMC2789382:
Results are given in words; binding and its absence hold for the method and conditions named. In cells and extracts the contact can be indirect. Some binding calls cover weakened binding; strength is not graded here.

The chains behind the UniProt entries cited, without tags or fusion partners.
UniProt P35222: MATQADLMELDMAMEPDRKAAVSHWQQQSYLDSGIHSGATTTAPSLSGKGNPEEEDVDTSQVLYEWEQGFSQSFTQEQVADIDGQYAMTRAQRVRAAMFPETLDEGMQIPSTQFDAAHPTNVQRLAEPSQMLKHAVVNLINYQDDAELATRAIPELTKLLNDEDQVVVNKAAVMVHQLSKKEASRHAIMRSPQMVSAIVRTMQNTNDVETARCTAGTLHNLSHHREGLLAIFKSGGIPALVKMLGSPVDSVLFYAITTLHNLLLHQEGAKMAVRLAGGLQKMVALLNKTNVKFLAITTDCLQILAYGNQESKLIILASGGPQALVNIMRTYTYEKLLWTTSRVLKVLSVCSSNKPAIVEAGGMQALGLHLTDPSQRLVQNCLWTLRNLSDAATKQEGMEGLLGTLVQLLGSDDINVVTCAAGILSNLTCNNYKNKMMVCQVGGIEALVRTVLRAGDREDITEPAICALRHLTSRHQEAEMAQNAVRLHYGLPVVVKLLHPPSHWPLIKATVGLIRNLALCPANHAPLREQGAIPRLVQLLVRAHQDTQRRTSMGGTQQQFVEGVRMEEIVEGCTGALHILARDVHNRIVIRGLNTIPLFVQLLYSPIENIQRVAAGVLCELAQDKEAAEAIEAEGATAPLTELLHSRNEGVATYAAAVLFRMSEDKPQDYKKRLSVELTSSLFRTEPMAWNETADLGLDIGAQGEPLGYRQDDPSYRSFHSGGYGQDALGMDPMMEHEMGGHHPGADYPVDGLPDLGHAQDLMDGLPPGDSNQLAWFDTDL
UniProt Q9UJU2: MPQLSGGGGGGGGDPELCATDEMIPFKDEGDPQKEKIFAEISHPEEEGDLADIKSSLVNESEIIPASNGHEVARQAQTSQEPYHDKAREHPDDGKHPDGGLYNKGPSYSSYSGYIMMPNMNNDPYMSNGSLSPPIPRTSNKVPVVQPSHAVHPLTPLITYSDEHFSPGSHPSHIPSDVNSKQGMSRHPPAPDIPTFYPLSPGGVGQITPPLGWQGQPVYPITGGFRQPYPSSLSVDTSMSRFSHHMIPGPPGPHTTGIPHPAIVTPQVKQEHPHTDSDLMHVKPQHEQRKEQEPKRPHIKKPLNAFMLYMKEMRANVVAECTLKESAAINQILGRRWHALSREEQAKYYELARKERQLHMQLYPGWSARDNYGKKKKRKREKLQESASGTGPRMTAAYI

Biological target: β-catenin (human (endogenous in SW480)) (UniProt P35222)
Assay: co-IP; SW480 cells, untreated or treated with EA (50 µM or increasing amounts) for 16 h; lysates (20 mM Tris-HCl pH 8.0, 10% glycerol, 5 mM MgCl2, 0.15 M KCl, 0.1% NP-40) incubated overnight at 4°C with agarose beads linked to anti-β-catenin monoclonal antibody; immunoblot

binding: binds
Substance: LEF-1 (from UniProt Q9UJU2 1-399)
